Assay results published in patent US20180179539.

Columns and labels:
[1] = test system: GluA2Qflip AMPA receptor (GluR2Q flip); assay: activity in cells; details: protein in cells; for functional effect of the aptamer: monomeric RNA active, hydrogel form inactive
[2] = test system: GluA2Qflip AMPA receptor (GluR2Q flip); assay: SELEX; details: protein in cells

“GGGAGAAUUCAACUGCCAUCUAGGCGGCGCAAAAAAAAAAAAAUGGGUCAUGGGAAAGGGCAGGUGAGAGGACUAGUACUACAAGCUUCUGGACUCGGU [D17]” was tested, and the functional effect of the aptamer (A'/A potentiation ratio) ([1]; 2 uM D17, 0.1 mM glutamate, average of three cells, potentiation lost, binding not measured, variant of CZ) was 1.03.

With “GGGAGAAUUCAACUGCCAUCUAGGCGGCGCAAAAAACGUAAAAUGGGUCAUGGGAAAGGGCAGGUGAGAGGACUAGUACUACAAGCUUCUGGACUCGGU [CZ]” the selection result [2] was “selected” and the “functional effect of the aptamer” value ([1]; whole-cell recording, -60 mV, 22 C, dose not given here) was “active”.

In the case of “GGGAGGCGGAUUCGAGAAUUCAACUGCCAUCUAGGCGGCGCAAAAAACGUAAAAUGGGUCAUGGGAAAGGGCAGGUGAGAGGACUAGUACUACAAGCUUCUGGACUCGGAUCCGUGACCCAAAGGUCAUACUCCCGGAGAAUUCAACUGCCAUCUAGGCGGCGCAAAAAACGUAAAAUGGGUCAUGGGAAAGGGCAGGUGAGAGGACUAGUACUACAAGCUUCUGGACUCCAAUAUU [2CZ]”, the “functional effect of the aptamer” value ([1]; 2 uM 2CZ potentiated current response to 0.1 mM glutamate, pH 7.4, -60 mV, variant of CZ) is reported as “active”.

For some of these results: Construct, isoform or probe ends are uncertain for at least one entry. For some of these results: Where cells or extracts were used, other partners may take part.
